From PMC5489075, “Purification and characterisation of the fission yeast Ndc80 complex” (Protein Expression and Purification, 2017)
These are yes or no findings as the source states them, for the method shown. For some of these results: Binding seen in cells or lysates may run through a third protein. Some entries that bind do so weakly or less than the wild type. Where a sequence is shown, tags or fusion partners need not be part of it.

How the values were obtained:
[1] = target: T1, 6His-Z-TEV-Ndc80 (S. pombe) (UniProt Q10198); assay: pull-down; co-purification on Protino Ni-TED resin of two chains co-expressed in E. coli, only one of them with 6His; Ndc80 buffer (50 mM potassium phosphate pH7.2, 300 mM KCl, 10% glycerol, 2 mM MgCl2, 1 mM beta-mercaptoethanol), 4 °C, elution with 300 mM imidazole
T1 sequence: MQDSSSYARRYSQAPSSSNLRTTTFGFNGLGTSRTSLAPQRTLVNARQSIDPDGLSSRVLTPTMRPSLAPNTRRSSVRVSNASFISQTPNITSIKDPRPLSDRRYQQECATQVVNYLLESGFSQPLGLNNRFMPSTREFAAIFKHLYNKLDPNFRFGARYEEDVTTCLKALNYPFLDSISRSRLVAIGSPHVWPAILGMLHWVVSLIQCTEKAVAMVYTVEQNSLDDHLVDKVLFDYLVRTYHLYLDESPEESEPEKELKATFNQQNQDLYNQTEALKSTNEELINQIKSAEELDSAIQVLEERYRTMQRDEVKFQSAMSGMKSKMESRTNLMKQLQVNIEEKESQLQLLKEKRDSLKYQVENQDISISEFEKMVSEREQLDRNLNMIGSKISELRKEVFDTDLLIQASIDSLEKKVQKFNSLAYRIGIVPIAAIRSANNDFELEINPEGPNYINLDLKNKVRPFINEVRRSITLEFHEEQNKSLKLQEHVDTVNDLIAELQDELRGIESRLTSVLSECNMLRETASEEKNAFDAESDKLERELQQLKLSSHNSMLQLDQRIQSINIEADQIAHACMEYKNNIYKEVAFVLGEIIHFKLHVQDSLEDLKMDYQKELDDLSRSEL

[2] = target: T2, 6His-Z-TEV-Spc25-eGFP (S. pombe) (UniProt Q10430); assay: as above
T2 sequence: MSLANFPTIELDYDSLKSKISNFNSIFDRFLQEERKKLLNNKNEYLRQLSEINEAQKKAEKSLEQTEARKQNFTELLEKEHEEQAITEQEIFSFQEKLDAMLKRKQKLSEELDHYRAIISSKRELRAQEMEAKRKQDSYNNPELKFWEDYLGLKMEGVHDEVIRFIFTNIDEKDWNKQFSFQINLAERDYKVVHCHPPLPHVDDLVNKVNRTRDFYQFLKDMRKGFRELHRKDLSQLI

[3] = target: T3, Ndc80-Nuf2 sub-complex, 6His-Z and Z-tag removed (S. pombe) (UniProt Q10198+Q10173); assay: SEC; Superose 6 10/300 GL in ice-cold Ndc80 buffer, after TEV removal of 6His-Z and Z-tag; fractions on SDS-PAGE, densitometry of bands; both purified
T3 sequence 1: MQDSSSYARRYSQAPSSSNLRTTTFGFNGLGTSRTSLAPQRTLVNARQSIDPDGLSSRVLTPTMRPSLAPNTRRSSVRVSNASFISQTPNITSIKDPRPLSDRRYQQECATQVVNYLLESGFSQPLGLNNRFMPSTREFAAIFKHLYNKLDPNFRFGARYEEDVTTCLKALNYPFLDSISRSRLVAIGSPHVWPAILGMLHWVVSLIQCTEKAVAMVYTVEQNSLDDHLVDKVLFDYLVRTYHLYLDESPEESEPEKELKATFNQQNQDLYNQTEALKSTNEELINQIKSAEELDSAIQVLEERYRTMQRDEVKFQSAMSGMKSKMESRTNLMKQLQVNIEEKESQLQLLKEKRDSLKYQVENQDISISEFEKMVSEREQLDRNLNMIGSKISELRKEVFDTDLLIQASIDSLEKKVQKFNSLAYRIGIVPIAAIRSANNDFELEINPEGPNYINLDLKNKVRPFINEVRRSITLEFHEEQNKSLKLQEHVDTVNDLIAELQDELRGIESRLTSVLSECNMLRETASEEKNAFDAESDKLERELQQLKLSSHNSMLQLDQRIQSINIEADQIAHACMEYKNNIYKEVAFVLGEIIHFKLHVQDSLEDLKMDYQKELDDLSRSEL
T3 sequence 2: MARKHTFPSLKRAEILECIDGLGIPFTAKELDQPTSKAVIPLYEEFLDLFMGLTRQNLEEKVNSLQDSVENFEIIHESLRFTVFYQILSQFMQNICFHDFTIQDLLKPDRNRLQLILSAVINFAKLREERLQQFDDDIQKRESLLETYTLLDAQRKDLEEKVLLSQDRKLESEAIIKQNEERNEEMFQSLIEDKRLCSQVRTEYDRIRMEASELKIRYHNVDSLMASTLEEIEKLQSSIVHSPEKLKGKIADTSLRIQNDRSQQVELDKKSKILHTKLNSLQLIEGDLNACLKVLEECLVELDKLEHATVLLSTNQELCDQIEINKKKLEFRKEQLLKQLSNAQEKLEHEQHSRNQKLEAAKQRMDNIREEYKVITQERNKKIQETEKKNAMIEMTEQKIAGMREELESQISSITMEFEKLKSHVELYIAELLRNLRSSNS

[4] = target: T4, 6His-Z-TEV-Ndc80/Z-TEV-Nuf2 sub-complex (S. pombe) (UniProt Q10198+Q10173); assay: pull-down; equal amounts (10 mg) of the two purified sub-complexes mixed in Ndc80 buffer, 4 °C, 16 h; assembled complex held on Protino Ni-TED resin by 6His-Z-Ndc80 and eluted; both purified
T4 sequence 1: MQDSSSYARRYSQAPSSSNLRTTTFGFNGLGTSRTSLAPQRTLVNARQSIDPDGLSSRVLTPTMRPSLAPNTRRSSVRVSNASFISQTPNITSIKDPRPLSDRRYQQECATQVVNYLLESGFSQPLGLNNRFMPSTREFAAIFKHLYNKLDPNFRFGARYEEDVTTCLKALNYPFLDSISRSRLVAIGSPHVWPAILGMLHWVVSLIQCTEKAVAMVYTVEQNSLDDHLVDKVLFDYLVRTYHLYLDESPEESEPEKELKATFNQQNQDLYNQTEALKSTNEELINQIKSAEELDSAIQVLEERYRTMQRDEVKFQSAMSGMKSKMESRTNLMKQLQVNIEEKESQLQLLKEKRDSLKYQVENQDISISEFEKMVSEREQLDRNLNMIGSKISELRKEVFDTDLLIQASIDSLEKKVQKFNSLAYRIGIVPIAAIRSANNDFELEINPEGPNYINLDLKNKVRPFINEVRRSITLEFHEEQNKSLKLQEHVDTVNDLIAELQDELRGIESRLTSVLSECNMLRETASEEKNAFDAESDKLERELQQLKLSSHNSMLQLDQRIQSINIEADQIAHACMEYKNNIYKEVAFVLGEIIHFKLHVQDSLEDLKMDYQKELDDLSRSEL
T4 sequence 2: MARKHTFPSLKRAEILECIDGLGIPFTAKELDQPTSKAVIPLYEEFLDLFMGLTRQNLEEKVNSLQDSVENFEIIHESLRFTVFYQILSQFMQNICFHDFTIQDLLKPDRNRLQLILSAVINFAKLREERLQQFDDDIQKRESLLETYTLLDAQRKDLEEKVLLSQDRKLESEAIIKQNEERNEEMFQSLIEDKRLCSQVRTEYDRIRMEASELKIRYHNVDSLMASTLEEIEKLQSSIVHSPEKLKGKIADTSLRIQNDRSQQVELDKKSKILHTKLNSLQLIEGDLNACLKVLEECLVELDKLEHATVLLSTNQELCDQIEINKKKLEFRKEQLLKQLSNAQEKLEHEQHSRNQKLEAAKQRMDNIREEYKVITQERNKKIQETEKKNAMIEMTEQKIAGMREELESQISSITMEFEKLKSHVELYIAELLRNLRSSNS

B1: Z-TEV-Nuf2 (protein, UniProt Q10173 1-441)
chain: MARKHTFPSLKRAEILECIDGLGIPFTAKELDQPTSKAVIPLYEEFLDLFMGLTRQNLEEKVNSLQDSVENFEIIHESLRFTVFYQILSQFMQNICFHDFTIQDLLKPDRNRLQLILSAVINFAKLREERLQQFDDDIQKRESLLETYTLLDAQRKDLEEKVLLSQDRKLESEAIIKQNEERNEEMFQSLIEDKRLCSQVRTEYDRIRMEASELKIRYHNVDSLMASTLEEIEKLQSSIVHSPEKLKGKIADTSLRIQNDRSQQVELDKKSKILHTKLNSLQLIEGDLNACLKVLEECLVELDKLEHATVLLSTNQELCDQIEINKKKLEFRKEQLLKQLSNAQEKLEHEQHSRNQKLEAAKQRMDNIREEYKVITQERNKKIQETEKKNAMIEMTEQKIAGMREELESQISSITMEFEKLKSHVELYIAELLRNLRSSNS
With B1 as the binder, how does the binding [1] read?
The binding was “binds”.

B2: Z-TEV-Spc24-eGFP (protein, UniProt Q9UST6 1-198)
chain: MSDSPIELMRSTLAGFQIAPDVKTISNIQDIRAQIQSFREKELEGSQTKFKVLSRKLEISTQAMESLKQTAESSQHAEEILSREKEKFRIAKLLNITENEIMSLESQLQKMKEQLLQLEERENTSEDICQSEENANMLKLNFYHSLGFDLETAENTGNKRVIIHTENDLQTVQISNKYSPYFYSNYFWDLLDDSKDKK
For B2, which binding [2] is on record?
The binding was “binds”.

B3: Spc24-eGFP/Spc25-eGFP sub-complex (complex, UniProt Q9UST6 1-198; Q10430 1-238)
chain 1: MSDSPIELMRSTLAGFQIAPDVKTISNIQDIRAQIQSFREKELEGSQTKFKVLSRKLEISTQAMESLKQTAESSQHAEEILSREKEKFRIAKLLNITENEIMSLESQLQKMKEQLLQLEERENTSEDICQSEENANMLKLNFYHSLGFDLETAENTGNKRVIIHTENDLQTVQISNKYSPYFYSNYFWDLLDDSKDKK
chain 2: MSLANFPTIELDYDSLKSKISNFNSIFDRFLQEERKKLLNNKNEYLRQLSEINEAQKKAEKSLEQTEARKQNFTELLEKEHEEQAITEQEIFSFQEKLDAMLKRKQKLSEELDHYRAIISSKRELRAQEMEAKRKQDSYNNPELKFWEDYLGLKMEGVHDEVIRFIFTNIDEKDWNKQFSFQINLAERDYKVVHCHPPLPHVDDLVNKVNRTRDFYQFLKDMRKGFRELHRKDLSQLI
Which results are given for B3?
binding [3]: binds; binding [4]: binds
